In PubChem BioAssay (Tox21):
Where “and” joins values, the source holds several entries; their conditions need not be identical. Equal entries are not always repeated. Inconclusive results, whose numbers are uncertain, are shown with a selection of clear calls. For part of these data: Potencies of inconclusive entries are doubtful fits and often do not repeat. The source holds several records for some structures; these can differ, active in one and inactive in another. Calls of active or inactive are those of the source. Unless noted, the call rests on the fitted dose curve.

Amino acid sequences for entries named in this document (tags omitted). A change or cut given only in a name is not applied to a line headed by its entry.
UniProt P28223, whole entry, looked up: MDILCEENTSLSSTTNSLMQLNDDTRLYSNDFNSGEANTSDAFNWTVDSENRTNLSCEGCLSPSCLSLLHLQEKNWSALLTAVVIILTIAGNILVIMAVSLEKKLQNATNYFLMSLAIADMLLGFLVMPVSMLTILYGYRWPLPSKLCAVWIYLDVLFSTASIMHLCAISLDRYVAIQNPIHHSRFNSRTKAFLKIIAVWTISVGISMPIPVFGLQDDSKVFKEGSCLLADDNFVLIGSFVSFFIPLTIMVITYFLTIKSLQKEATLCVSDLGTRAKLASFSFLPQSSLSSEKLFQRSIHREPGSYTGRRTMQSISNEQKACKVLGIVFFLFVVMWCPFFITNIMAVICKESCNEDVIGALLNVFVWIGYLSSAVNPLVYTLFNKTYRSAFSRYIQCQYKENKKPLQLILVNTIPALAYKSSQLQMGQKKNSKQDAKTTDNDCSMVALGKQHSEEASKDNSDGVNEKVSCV
UniProt P14416, whole entry, looked up: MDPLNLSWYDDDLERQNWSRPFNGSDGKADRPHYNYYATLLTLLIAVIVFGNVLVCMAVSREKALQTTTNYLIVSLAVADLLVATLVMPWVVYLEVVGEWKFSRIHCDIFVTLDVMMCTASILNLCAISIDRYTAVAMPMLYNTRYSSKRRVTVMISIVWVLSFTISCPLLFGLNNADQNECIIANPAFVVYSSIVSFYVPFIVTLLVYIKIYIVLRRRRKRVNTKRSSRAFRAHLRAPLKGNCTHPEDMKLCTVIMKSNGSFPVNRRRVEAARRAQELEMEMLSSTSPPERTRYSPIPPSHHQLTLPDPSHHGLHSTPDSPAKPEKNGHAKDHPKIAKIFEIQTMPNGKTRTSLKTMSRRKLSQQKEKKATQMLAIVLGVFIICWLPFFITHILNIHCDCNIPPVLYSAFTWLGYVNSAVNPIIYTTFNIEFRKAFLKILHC
UniProt P30968: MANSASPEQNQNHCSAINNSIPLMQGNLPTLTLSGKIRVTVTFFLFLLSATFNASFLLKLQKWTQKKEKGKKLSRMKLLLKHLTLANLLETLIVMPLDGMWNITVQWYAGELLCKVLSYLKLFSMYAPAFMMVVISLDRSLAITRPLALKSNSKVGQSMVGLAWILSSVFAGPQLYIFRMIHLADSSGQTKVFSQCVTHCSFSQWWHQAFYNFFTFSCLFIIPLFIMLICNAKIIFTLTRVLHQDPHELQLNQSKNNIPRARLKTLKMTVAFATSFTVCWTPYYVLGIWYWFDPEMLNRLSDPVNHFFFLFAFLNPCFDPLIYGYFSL
UniProt P11229: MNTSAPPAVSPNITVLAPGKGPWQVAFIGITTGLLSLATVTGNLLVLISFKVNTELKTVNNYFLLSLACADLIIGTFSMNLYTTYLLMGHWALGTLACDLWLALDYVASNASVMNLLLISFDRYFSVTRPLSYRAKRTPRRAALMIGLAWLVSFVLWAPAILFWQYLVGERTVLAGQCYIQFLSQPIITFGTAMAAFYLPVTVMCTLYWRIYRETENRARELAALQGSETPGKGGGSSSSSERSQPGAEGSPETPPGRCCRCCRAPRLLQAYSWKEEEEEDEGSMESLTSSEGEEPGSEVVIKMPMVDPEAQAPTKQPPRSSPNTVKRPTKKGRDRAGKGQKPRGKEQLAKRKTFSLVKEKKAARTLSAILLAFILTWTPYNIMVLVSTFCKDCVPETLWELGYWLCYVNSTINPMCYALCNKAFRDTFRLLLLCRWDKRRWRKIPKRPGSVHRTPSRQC

Legend:
[1] = Nuclear factor erythroid 2-related factor 2/antioxidant responsive element (Nrf2/ARE) small molecule agonists: luciferase reporter gene qHTS assay in human keratinocytes (AID 1919969); further: potency means the concentration at half of the fitted maximal effect; nearly all actives have a fitted effect of over 35% in size
[2] = p53 small molecule agonists, cell-based qHTS assay with human liver microsomes (AID 1963577); settings: HCT-116 p53RE-bla with human liver microsomes, ratio, 16 h; activation: at 66 µM (top of the series) unless noted; further: potency means the concentration at half of the fitted maximal effect
Method in brief: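 p53RE-bla cells, 4,000/well, compound added after 5 h, with human liver microsomes 0.5 mg/mL and NADPH 0.5 mg/mL final; 16 h at 37 C, then LiveBLAzer 2 h RT, fluorescence.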

[3] = p53 small molecule agonists, cell-based qHTS assay: qHTS cell viability counter screen (AID 1963581); further: potency means the concentration at half of the fitted maximal effect; nearly all actives have a fitted effect of over 45% in size
Method in brief: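 Multiplexed with the reporter read, a CellTiter-Glo step (30 min, room temperature) gauges ATP-based viability of HCT-116 p53RE-bla cells after 16 h compound incubation at 37 C.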

[4] = p53 small molecule agonists, cell-based qHTS assay (AID 1963582; active means well fitted activation curve with a large enough effect in the signal ratio in the repeat runs, not every such curve was filed as active; inconclusive means weak or mixed curves; the % refers to the signal ratio; further: potency means the concentration at half of the fitted maximal effect); settings: HCT-116 p53RE-bla reporter, beta-lactamase FRET ratio, 16 h; activation: at 66 µM (top of the series) unless noted
Method in brief: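 Beta-lactamase reporter cells (p53RE-bla) treated with compounds for 16 h at 37 C; FRET substrate, 2 h, room temperature; fluorescence intensity.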

[5] = target: 5-hydroxytryptamine receptor 2A (Homo sapiens) (UniProt P28223); assay: 5-hydroxytryptamine receptor 2A (HTR2A) small molecule antagonists, cell-based qHTS assay (AID 1963586); further: nearly all actives have a fitted effect of over 45% in size; further: potency means the concentration at half of the fitted maximal effect
Method in brief: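 CHO cells stably expressing human HTR2A were plated for 18 h at 37 C, then loaded with calcium dye for 1 h. Compounds were preincubated 5 min at room temperature before DOI (4 nM solution) was added. Kinetic fluorescence was read for 3 min.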

[6] = target: 5-hydroxytryptamine receptor 2A (Homo sapiens) (UniProt P28223); assay: 5-hydroxytryptamine receptor 2A (HTR2A) small molecule agonists, cell-based qHTS assay (AID 1963587); settings: HTR2A-CHO cells, calcium flux fluorescence, agonist mode; activation: at 76.8 µM (top of the series); further: potency means the concentration at half of the fitted maximal effect; nearly all actives have a fitted effect of over 30% in size
Method in brief: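 CHO cells stably expressing human HTR2A, plated 18 h, loaded with calcium dye 1 h at 37 C. Agonist mode: compounds added and intracellular calcium fluorescence recorded kinetically for 2 min at 1 sec intervals.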

[7] = cAMP Responsive Elements (CRE) small molecule agonists, cell-based qHTS assay (AID 1963590); settings: CRE-bla HEK293T, beta-lactamase FRET ratio, 3 h; activation: at 92.4 µM (top of the series) unless noted; further: potency means the concentration at half of the fitted maximal effect
Method in brief: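 Quantitative HTS for CRE agonists: HEK 293T CRE-bla cells, overnight plating, 3 h compound incubation at 37 C/5% CO2, then 2 h room-temperature LiveBLAzer B/G FRET substrate loading.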

[8] = cAMP Responsive Elements (CRE) small molecule antagonists, cell-based qHTS assay (AID 1963591; active means well fitted inhibition curve with a large enough effect in the signal ratio in the repeat runs, not every such curve was filed as active; inconclusive means weak or mixed curves, or effect the other way; the % refers to the signal ratio; further: potency means the concentration at half of the fitted maximal effect; on activity change, negative = inhibition: on the % scale 0 is the no-effect control and ±100 the full control effect); settings: CRE-bla HEK293T, beta-lactamase FRET ratio; activity change, negative = inhibition: at 92.4 µM (top of the series) unless noted
Method in brief: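 Fluorescence intensity from cleaved LiveBLAzer B/G substrate (2 h, room temperature) quantified CRE-bla activity in HEK 293T cells exposed 3 h to compound with 0.25 uM final NKH477.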

[9] = target: Beta-2 adrenergic receptor (Homo sapiens) (UniProt P07550); assay: Adrenergic beta2 receptor (ADRB2) small molecule agonists, cell-based qHTS assay (AID 1963593); settings: CHO-ADRB2 cells, cAMP HTRF, 30 min; activation: at 92.4 µM (top of the series) unless noted; further: potency means the concentration at half of the fitted maximal effect;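 on activation: CHO cells stably overexpressing human ADRB2; on the % scale 0 is the no-effect control and ±100 the full control effect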
Method in brief: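 CHO cells stably over-expressing ADRB2 were plated overnight at 37C, then dosed with compounds plus a stimulation mix containing 100uM IBMX and 25uM Ro-20-1724 for 0.5hr at room temperature. cAMP was measured by HTRF competition, 1hr.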

[10] = target: D(2) dopamine receptor (Homo sapiens) (UniProt P14416); assay: Dopamine D2 receptor (DRD2) small molecule agonists, cell-based qHTS assay (AID 1963594); settings: HEK293-DRD2 cAMP HTRF, agonist mode, 30 min; activation: at 92.4 µM (top of the series) unless noted; further: nearly all actives have a fitted effect of over 35% in size; further: potency means the concentration at half of the fitted maximal effect; on activation: on the % scale 0 is the no-effect control and ±100 the full control effect
Method in brief: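 HEK293 cells stably expressing human DRD2, pre-treated with PDE inhibitor Ro20-1724 (0.1 mM final) and compound 10 min at room temperature, then stimulated with NKH477 (200nM […]) for 30 min. cAMP read by HTRF (665/620 nm).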

[11] = target: Gonadotropin-releasing hormone receptor (Homo sapiens) (UniProt P30968); assay: Human gonadotropin-releasing hormone receptor (GnRHR) small molecule agonists, calcium flux assay in GnRHR-HEK293 cells (AID 1920063); settings: calcium flux fluorescence, agonist mode; activity change: at 57.6 µM (top of the series), stronger effect = higher value unless noted; further: potency means the concentration at half of the fitted maximal effect; nearly all actives have a fitted effect of over 35% in size
Method in brief: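 Calcium flux, agonist mode, human GnRHR stably integrated in HEK293; dye 1 h at 37 C before compound; Ex/Em=480/540 kinetic read, 3 min; 15 concentrations, triplicate.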

[12] = p53 small molecule agonists, cell-based qHTS assay with rat liver microsomes (AID 1963578); settings: HCT-116 p53RE-bla, beta-lactamase ratio, 16 h; activation: at 66 µM (top of the series) unless noted; further: potency means the concentration at half of the fitted maximal effect
Method in brief: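 p53RE-bla cells, 4,000/well, pre-incubated 5 h, then given compounds plus rat liver microsomes (0.5 mg/mL final) and NADPH (0.5 mg/mL final). Incubation 16 h at 37 C; beta-lactamase reporter read by LiveBLAzer fluorescence after 2 h at room temperature.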

[13] = target: D(2) dopamine receptor (Homo sapiens) (UniProt P14416); assay: Dopamine D2 receptor (DRD2) small molecule antagonists, cell-based qHTS assay (AID 1963595; active means well fitted inhibition curve with a large enough effect in the signal ratio in the repeat runs, with a control signal flat; inconclusive means weak or mixed curves, or effect the other way; the % refers to the signal ratio; further: potency means the concentration at half of the fitted maximal effect; on activity change, negative = inhibition: on the % scale 0 is the no-effect control and ±100 the full control effect); settings: HEK293-DRD2 cAMP HTRF antagonist mode; activity change, negative = inhibition: at 92.4 µM (top of the series) unless noted
Method in brief: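 Stable D2 receptor HEK293 line, 24 h after seeding. Compound preincubated 10 min, then quinpirole (12 nM) with forskolin analogue NKH477 (200 nM), 30 min, room temperature. Detection by time-resolved FRET of cAMP.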

[14] = p53 small molecule agonists, cell-based qHTS assay with human liver microsomes: qHTS cell viability counter screen (AID 1963579); further: potency means the concentration at half of the fitted maximal effect; nearly all actives have a fitted effect of over 45% in size
Method in brief: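 p53RE-bla cells, 4,000/well, dosed 5 hours after plating, with human liver microsomes (0.5 mg/mL final) plus NADPH (0.5 mg/mL final), 16 hours at 37 C. Viability read as CellTiter-Glo luminescence after 30 min at room temperature.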

[15] = target: Muscarinic acetylcholine receptor M1 (Homo sapiens) (UniProt P11229); assay: Cholinergic receptor muscarinic 1 (CHRM1) small molecule antagonists, cell-based qHTS assay (AID 1963588); further: potency means the concentration at half of the fitted maximal effect; nearly all actives have a fitted effect of over 40% in size
Method in brief: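 Compounds were tested at 15 concentrations in three independent runs. Dye-loaded CHRM1-CHO cells were exposed 5 min at room temperature before stimulation by acetylcholine added at 50nM. Intracellular calcium was read kinetically on FDSS for 3 min.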

[16] = p53 small molecule agonists, cell-based qHTS assay with rat liver microsomes: qHTS cell viability counter screen (AID 1963580); further: on the % scale 0 is the no-effect control and ±100 the full control effect; nearly all actives have a fitted effect of over 45% in size
Method in brief: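 After the beta-lactamase ratio was read, CellTiter-Glo was added to the same wells and luminescence measured at 30 min; cells had been treated 16 h at 37 C with compounds, rat liver microsomes and NADPH (0.5 mg/mL final each).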

In the case of `CCCCC/C=C\C/C=C\C/C=C\C/C=C\CCCC(=O)NCC(=O)O`, the Potency [1] was inconclusive: 29.8 µM [activator, single point], the Potency [2] was inconclusive: 22.3 µM [fluorescent, single point] and the Potency [3] was inconclusive: 22.3 µM [cytotoxic, single point]. For the same compound, the Potency [4] was inconclusive: 7.07 µM [rising, partial curve, poor fit], the Potency [5] was active: 14.5 µM and the Potency [6] was inconclusive: 26.8 µM [activator, single point]. The Potency [7] was inconclusive: 29.8 µM [rising, single point], the Potency [8] was inconclusive: 33.5 µM [rising, single point] and the Potency [9] was “inactive”. For the same compound, the activation [10] was inconclusive: -0.979% [at 42.5 µM].

For `C[C@H]1CC[C@@H]2[C@@H](C)[C@H]3[C@H](C[C@H]4[C@@H]5CC=C6CC(O[C@@H]7O[C@H](CO)[C@H](O)[C@H](O[C@@H]8O[C@H](CO)[C@@H](O)[C@H](O)[C@H]8O)[C@H]7O[C@H]7O[C@@H](C)[C@H](O)[C@@H](O)[C@H]7O)CC[C@]6(C)[C@H]5CC[C@]34C)N2C1` (stereo partly drawn), the Potency [1] was inconclusive: 17.8 µM [activator, single point], the Potency [11] was active: 10.1 µM and the Potency [5] was “inactive”. For the same compound, the Potency [6] was active: 63.7 µM, the Potency [8] was “inactive” and the Potency [9] was “inactive”. The Potency [10] was inconclusive: 64.5 µM.

In the case of `CNC(=O)Oc1cccc2ccccc12`, the Potency [1] was inconclusive: 68.6 µM [activator, single point], the Potency [2] was inconclusive: 16.1 µM [activator, full curve] and inconclusive: 3.54 µM [fluorescent, full curve] and the Potency [12] was inconclusive: 28.6 µM [fluorescent, partial curve] and active: 32.4 µM and inconclusive: 12.6 µM [fluorescent]. For the same compound, the Potency [3] was inconclusive: 1.8 µM [rising, partial curve, poor fit], the Potency [5] was inconclusive: 20.5 µM [inhibitor, partial curve, poor fit] and the activity change, negative = inhibition [8] was inconclusive: -11.3%. For the same compound, the Potency [9] was inconclusive: 606 nM [inhibitor] and the Potency [13] was “inactive”.

In the case of `COP(=S)(OC)Oc1nc(Cl)c(Cl)cc1Cl`, the Potency [1] was inconclusive: 68.5 µM [activator, single point], the Potency [2] was inconclusive: 0.457 µM [fluorescent, full curve] and the Potency [12] was inconclusive: 4.08 µM [fluorescent, partial curve]. For the same compound, the Potency [7] was inconclusive: 68.5 µM [rising, partial curve], the Potency [8] was inconclusive: 27.3 µM [fluorescent, single point] and the Potency [9] was “inactive”.

With `CC1CCC(C(C)C)C(OC(=O)c2ccccc2N)C1` (stereo not drawn) the Potency [1] was inconclusive: 15.1 µM [activator, single point], the Potency [2] was “inactive” and the Potency [12] was active: 35.8 µM. For the same compound, the Potency [14] was active: 35.8 µM, the Potency [3] was active: 31.9 µM and the Potency [4] was inconclusive: 45.1 µM. The Potency [5] was inconclusive: 11.7 µM [inhibitor, full curve, poor fit], the Potency [15] was inconclusive: 165 nM [inhibitor, full curve] and the Potency [8] was inconclusive: 26.9 µM [inhibitor]. For the same compound, the activation [9] was inconclusive: -18.1% and the Potency [13] was inconclusive: 67.6 µM [inhibitor, single point].

With `CCCCSP(=O)(SCCCC)SCCCC` the Potency [1] was inconclusive: 67 µM [activator, partial curve, poor fit], the Potency [2] was inconclusive: 22.4 µM [fluorescent, partial curve] and the Potency [12] was inconclusive: 6.31 µM [fluorescent, partial curve] and inconclusive: 1.82 µM [fluorescent, full curve]. The Potency [15] was inconclusive: 14.6 nM [inhibitor, full curve, poor fit], the Potency [7] was “inactive” and the Potency [9] was inconclusive: 53.2 µM [inhibitor, partial curve, poor fit] and inconclusive: 193 nM [inhibitor, single point].

For `CCCC[N+]1(C)CCCC1`, the Potency [1] was active: 54.8 µM, the Potency [2] was inconclusive: 51.6 µM [fluorescent, single point] and the Potency [12] was inconclusive: 51.7 µM [activator, partial curve, poor fit]. The Potency [3] was inconclusive: 32.6 µM [rising, partial curve, poor fit], the Potency [15] was inconclusive: 13.4 µM [inhibitor, partial curve, poor fit] and inconclusive: 1.68 µM [inhibitor, full curve] and inconclusive: 5.29 µM [inhibitor, partial curve] and the Potency [9] was inconclusive: 1380 nM [inhibitor, single point]. The activation [9] was inconclusive: -31.9% and inconclusive: -13.4%.

With `CN1C[C@H](C(=O)N[C@]2(C)O[C@@]3(O)[C@@H]4CCCN4C(=O)[C@H](Cc4ccccc4)N3C2=O)C=C2c3cccc4[nH]cc(c34)C[C@H]21` the Potency [1] was inconclusive: 20.2 µM [activator, partial curve], the Potency [2] was inconclusive: 32.5 µM [rising, partial curve] and the Potency [16] was “inactive”. For the same compound, the Potency [8] was active: 48.8 µM and inconclusive: 5.95 µM [inhibitor, single point], the Potency [9] was “inactive” and the Potency [10] was inconclusive: 56.8 µM and active: 1.23 µM. For the same compound, the Potency [13] was inconclusive: 68.9 µM [cytotoxic, single point] and the activity change, negative = inhibition [13] was inconclusive: -6.74% [at 42.5 µM].
